These are yes or no findings as the source states them, for the method shown. Binding seen in cells or lysates may run through a third protein. Binding calls can cover weak binding; strength is not graded here.
Target: LRP6-E1E2 (a region of amino acid numbers 1 to 629 of human LRP6, fused to a His tag) (human) (UniProt O75581)
Assay: co-precipitation of His-tagged LRP6-E1E2 with PA-tagged mouse USAG-1 (by NZ-1, or by anti-USAG-1 antibody on Protein A sepharose); SDS-PAGE, Oriole staining

By UniProt entry, the sequences of proteins in these tests, tags left out. Where a name states a change or a piece, a line headed by the entry shows the natural chain unless it says otherwise. Residues count along the entry.
UniProt O75581: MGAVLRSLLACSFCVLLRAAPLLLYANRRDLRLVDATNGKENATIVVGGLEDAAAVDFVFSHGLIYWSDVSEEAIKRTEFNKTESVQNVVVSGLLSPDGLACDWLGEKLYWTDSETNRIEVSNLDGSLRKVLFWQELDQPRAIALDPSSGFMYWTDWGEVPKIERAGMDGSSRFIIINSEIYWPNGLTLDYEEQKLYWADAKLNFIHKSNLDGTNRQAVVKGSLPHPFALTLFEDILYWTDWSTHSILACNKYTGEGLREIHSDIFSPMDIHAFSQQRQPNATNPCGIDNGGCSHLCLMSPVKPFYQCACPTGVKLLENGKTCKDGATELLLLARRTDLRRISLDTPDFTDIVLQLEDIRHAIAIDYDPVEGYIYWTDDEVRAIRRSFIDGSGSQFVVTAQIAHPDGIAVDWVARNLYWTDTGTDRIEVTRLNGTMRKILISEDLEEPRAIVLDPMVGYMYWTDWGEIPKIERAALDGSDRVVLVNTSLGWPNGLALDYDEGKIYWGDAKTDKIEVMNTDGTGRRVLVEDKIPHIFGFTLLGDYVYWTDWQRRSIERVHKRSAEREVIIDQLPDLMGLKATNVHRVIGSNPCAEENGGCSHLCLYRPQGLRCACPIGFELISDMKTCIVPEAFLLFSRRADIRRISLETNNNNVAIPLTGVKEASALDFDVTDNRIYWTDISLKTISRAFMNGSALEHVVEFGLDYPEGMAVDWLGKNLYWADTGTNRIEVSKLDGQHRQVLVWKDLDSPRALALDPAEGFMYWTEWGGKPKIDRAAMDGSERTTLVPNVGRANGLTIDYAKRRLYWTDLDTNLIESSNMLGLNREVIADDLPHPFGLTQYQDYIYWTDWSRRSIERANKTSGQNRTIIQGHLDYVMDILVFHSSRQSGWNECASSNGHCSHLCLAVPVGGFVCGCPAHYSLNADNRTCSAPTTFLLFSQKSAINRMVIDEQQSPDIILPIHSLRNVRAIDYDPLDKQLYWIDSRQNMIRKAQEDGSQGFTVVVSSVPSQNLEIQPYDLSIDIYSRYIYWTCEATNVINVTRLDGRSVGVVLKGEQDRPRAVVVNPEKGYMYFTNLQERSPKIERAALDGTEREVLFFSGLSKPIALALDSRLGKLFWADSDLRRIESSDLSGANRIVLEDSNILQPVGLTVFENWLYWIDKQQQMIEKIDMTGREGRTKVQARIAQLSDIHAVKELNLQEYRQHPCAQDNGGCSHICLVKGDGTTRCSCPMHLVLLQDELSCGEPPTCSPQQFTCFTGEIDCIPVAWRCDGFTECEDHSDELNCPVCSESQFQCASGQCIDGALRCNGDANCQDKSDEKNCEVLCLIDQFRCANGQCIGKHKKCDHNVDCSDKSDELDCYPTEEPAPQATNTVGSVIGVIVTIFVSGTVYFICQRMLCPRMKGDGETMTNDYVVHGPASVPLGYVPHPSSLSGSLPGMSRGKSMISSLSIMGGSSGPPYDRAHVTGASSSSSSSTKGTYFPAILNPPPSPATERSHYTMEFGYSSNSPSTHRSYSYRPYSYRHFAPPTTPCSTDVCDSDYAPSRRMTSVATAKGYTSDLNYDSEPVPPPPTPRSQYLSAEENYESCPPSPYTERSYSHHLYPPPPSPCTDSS
UniProt Q9CQN4, residues 24-206: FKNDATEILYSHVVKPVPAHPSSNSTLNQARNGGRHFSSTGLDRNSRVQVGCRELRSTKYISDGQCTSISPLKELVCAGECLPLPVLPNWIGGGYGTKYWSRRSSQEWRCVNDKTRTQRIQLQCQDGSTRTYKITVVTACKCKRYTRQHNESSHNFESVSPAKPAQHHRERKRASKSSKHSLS

## N-terminal PA-tagged mouse USAG-1 (WISE) recombinant protein (from UniProt Q9CQN4 24-206) (ligand)
  binding: binds
